Some of these results come from one statement about several compounds together.
System: human iPS cells (201B7, 1231A3, Ff-I01, QHJI01 lines)
Assay: Production of RPE cells including MEK inhibitor or FGF receptor inhibitor treatment step (first step); observation of brown-black cell population
Assay type: cell-based
Settings: first step tested 1-6 days (1 μM PD0325901 or 100 nM PD173074); QHJI01 line; day 48 of culture
Source text: In one embodiment, to study the effect of the FGF receptor inhibitor in a medium free of a factor for maintaining undifferentiated state (bFGF), STEMSURE™ hPSC Medium Δ (Wako Pure Chemical Industries, Ltd.) (hereinafter STEMSURE™ hPSC Medium Δ w/o bFGF) not added with bFGF was used.
2014 Jan. 8; 4: 3594”. The medium used was STEMFIT™ AK03N medium (Ajinomoto Co., Inc.) (hereinafter AK03N medium).

CCN(CC)CCCCNc1ncc2cc(-c3cc(OC)cc(OC)c3)c(NC(=O)NC(C)(C)C)nc2n1 [PD173074, N-[2-[[4-(Diethylamino)butyl]amino]-6-(3,5-dimethoxyphenyl)pyrido[2,3-d]pyrimidin-7-yl]-N′-(1,1-dimethylethyl)urea]
exposure at which brown-black cell populations increased: not less than 2 days

Reference: patent US11618883B2, “Method for producing retinal pigment epithelial cells” (SUMITOMO PHARMA CO., LTD., priority 2017, dated 2023)
